Experimental data taken from the supplement of paper PMC4749390.
“And” between values parts separate entries of the source, which are not always exact repeats. Identical values can stand only once. Counter-ions that a name gives are not always drawn. The list shows a part of the results. Repeats in this data set agree poorly, so a single value says little.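 JEG3 cells stably carry tetracycline-induced wild-type human LRH-1, a heavily sumoylated nuclear receptor. APOC3 and MUC1 are SUMO-sensitive transcripts, raised by SUMO-less LRH-1 or UBC9 knockdown, measured by RT-qPCR against TBP and DMSO controls. A robust Z-score above +2 or below -2 marked a primary hit before toxicity and TBP filtering.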

system: JEG3 expressing hLRH-1; experiment: MUC1 transcript change (ddCt vs TBP and DMSO), Z-score over library; higher = higher MUC1 expression; conditions: 10 µM; time (hr): 24

| SMILES | MUC1 transcript change (Z-score) |
| --- | --- |
| CC(=O)Nc1ccc(OC(C)=O)cc1 [diacetamate] | 0.476 |
| C[C@]12CC[C@@H]3c4ccc(O)cc4CC[C@H]3[C@@H]1CC[C@@H]2OC(=O)CCC1CCCC1 [estradiol cypionate] | 0.853 |
| CN(C)CCOC(c1ccc(Cl)cc1)c1ccccn1 (stereo unspecified) [carbinoxamine maleate] | 0.429 |
| CC(C)[C@H](N)C(=O)OCC(CO)OCn1cnc2c(O)nc(N)nc21 (stereo partly specified) [valganciclovir hydrochloride] | 0.28 |
| NCc1ccc(S(N)(=O)=O)cc1 [mafenide hydrochloride] | -0.893 |
| CCOC(=O)C(C)(C)Oc1ccc(Cl)cc1 [Clofibrate] | 0.431 |
| CCN(CC)C(=O)/C(C#N)=C/c1cc(O)c(O)c([N+](=O)[O-])c1 [entacapone] | 0.621 |
| Cn1c([N+](=O)[O-])cc[n+]1C [dimetridazole] | 0.484 |
| O=C1OC(CN2CCOCC2)CN1/N=C/c1ccc([N+](=O)[O-])o1 (stereo unspecified) [furaltadone] | 0.897 |
| CCCCOCCOCCOCc1cc2c(cc1CCC)OCO2 [piperonyl butoxide] | 0.209 |
| CCCCCCCCCCCCCCCC(=O)NCCO [palmidrol] | 1.15 |
| C=CC1=C(C(=O)O)N2C(=O)[C@@H](NC(=O)/C(=N\O)c3csc(N)n3)[C@H]2SC1 [cefdinir] | -0.667 |
| CCCCC1C(=O)N(c2ccccc2)N(c2ccc(O)cc2)C1=O (stereo unspecified) [oxyphenbutazone] | -1.46 |
| NC12CC3CC(CC(C3)C1)C2 [Amantadine hydrochloride] | 1.47 |
| CO[C@H]1O[C@@H]2O[C@@]3(C)CC[C@H]4[C@H](C)CC[C@@H]([C@H]1C)[C@@]24OO3 [artemether] | -0.123 |
| C[C@@H](c1ncncc1F)[C@](O)(Cn1cncn1)c1ccc(F)cc1F [voriconazole] | 0.139 |
| O=C(C1CCCCC1)N1CC(=O)N2CCc3ccccc3C2C1 (stereo unspecified) [praziquantel] | 0.442 |
| C[C@H](CCC(=O)O)[C@H]1CCC2C3C(=O)CC4CC(=O)CC[C@]4(C)C3CC(=O)[C@@]21C (stereo partly specified) [sodium dehydrocholate] | 0.505 |
| CC1CC(OC(=O)c2ccccc2O)CC(C)(C)C1 (stereo unspecified) [homosalate] | 0.695 |
| CCC1(c2ccccc2)C(=O)NCNC1=O [Primidone] | 0.651 |
| CC(=O)NO [acetohydroxamic acid] | 0.778 |

| SMILES | MUC1 transcript change (Z-score) |
| --- | --- |
| O=C(O)c1cc(-c2ccc(F)cc2F)ccc1O [diflunisal] | -0.163 |
| CC(C)(Oc1ccc(Cl)cc1)C(=O)O [clofibric acid] | 0.273 |
| Cn1cnc([N+](=O)[O-])c1Sc1[nH]cnc2ncnc1-2 [Azathioprine] | 0.735 |
| CC(C)(S)[C@@H](N)C(=O)O [penicillamine] | 0.321 |
| CC(=O)CC(c1ccc([N+](=O)[O-])cc1)c1c(O)oc2ccccc2c1=O (stereo unspecified) [acenocoumarol] | 1.95 |
| CCCCCCCCCCC[C@@H](C[C@@H]1OC(=O)[C@H]1CCCCCC)OC(=O)[C@H](CC(C)C)NC=O [orlistat] | 0.283 |
| CC[C@H]1OC(=O)[C@H](C)[C@@H](O[C@H]2C[C@@](C)(OC)[C@@H](O)[C@H](C)O2)[C@H](C)[C@@H](O[C@@H]2O[C@H](C)C[C@H](N(C)C)[C@H]2O)[C@](C)(O)C[C@@H](C)[C@@H]2N[C@@H](COCCOC)O[C@H]([C@H]2C)[C@]1(C)O [dirithromycin] | -0.475 |
| O=C1CN2Cc3c(ccc(Cl)c3Cl)N=C2N1 [anagrelide hydrochloride] | -0.606 |
| COc1ccc2cc3[n+](cc2c1OC)CCc1cc2c(cc1-3)OCO2 [berberine chloride] | -0.493 |
| O=C1O[C@H](CO)[C@@H](O)[C@H](O)[C@H]1O [gluconolactone] | 0.903 |
| C[C@H](COc1ccccc1)N[C@H](C)[C@H](O)c1ccc(O)cc1 [isoxsuprine hydrochloride] | 0.313 |
| CCCN(CCC)C(=O)C(CCC(=O)O)NC(=O)c1ccccc1 (stereo unspecified) [Proglumide] | -0.725 |
| COc1cc(OC)c(C(=O)CCCN2CCCC2)c(OC)c1 [buflomedil hydrochloride] | -0.117 |
| COc1cc2nc(N3CCN(C(=O)C4CCCO4)CC3)nc(N)c2cc1OC (stereo unspecified) [terazosin hydrochloride] | -0.226 |
| CS(=O)(=O)OCCCCOS(C)(=O)=O [busulfan] | -0.33 |
| CC(C)Oc1ccc2c(=O)cc(-c3ccccc3)oc2c1 [ipriflavone] | -1.49 |
| COc1ccc2[nH]c(S(=O)Cc3ncc(C)c(OC)c3C)nc2c1 (stereo unspecified) [omeprazole] | 0.688 and 1.12 |
| Oc1ccc(Cl)c2cccnc12 [cloxyquin] | 0.141 |
| Cn1ccnc1S [methimazole] | -0.66 |
| CC[C@H]1OC(=O)[C@H](C)[C@@H](O[C@H]2C[C@@](C)(OC)[C@@H](O)[C@H](C)O2)[C@H](C)[C@@H](O[C@@H]2O[C@H](C)C[C@H](N(C)C)[C@H]2O)[C@](C)(O)C[C@@H](C)C(=O)[C@H](C)[C@@H](O)[C@]1(C)O [erythromycin] | 0.238 and 0.344 |
| CCC(=O)c1ccc(O)cc1 [paroxypropione] | 0.491 |

| SMILES | MUC1 transcript change (Z-score) |
| --- | --- |
| COc1ccc(C2CNC(=O)C2)cc1OC1CCCC1 (stereo unspecified) [Rolipram] | -1.2 |
| COc1cc(Cc2cnc(N)nc2N)cc(OC)c1OC [Trimethoprim] | -0.405 |
| Cc1ccccc1N1C(=O)c2cc(S(N)(=O)=O)c(Cl)cc2NC1C (stereo unspecified) [metolazone] | 0.0537 |
| C[C@H]1[C@H](OC(=O)CCC(=O)O)O[C@@H]2O[C@@]3(C)CC[C@H]4[C@H](C)CC[C@@H]1[C@@]24OO3 [artesunate] | -1.13 |
| COCC1=C(C(=O)OC(C)OC(=O)OC(C)C)N2C(=O)[C@@H](NC(=O)/C(=N\OC)c3csc(N)n3)[C@H]2SC1 (stereo partly specified) [cefpodoxime proxetil] | 0.0465 |
| C[C@H](Cn1cnc2c(N)ncnc21)OCP(=O)(O)O [tenofovir] | 1.23 |
| Cc1c(NC(C)C)c(=O)n(-c2ccccc2)n1C [ramifenazone] | -0.0494 |
| O=C(O)CN(CCN(CC(=O)O)CC(=O)O)CCN(CC(=O)O)CC(=O)O [pentetic acid] | -1.95 |
| CCCCC(CC)CN1CN(CC(CC)CCCC)CC(C)(N)C1 (stereo unspecified) [hexetidine] | 0.276 |
| C[C@@H]1CN(c2c(F)c(F)c3c(=O)c(C(=O)O)cn(C4CC4)c3c2F)C[C@H](C)N1 [orbifloxacin] | -0.176 |
| OC(CCN1CCCCC1)(c1ccccc1)C1CCCCC1 (stereo unspecified) [Trihexyphenidyl hydrochloride] | -0.0164 |
| C[C@H]1CC2C3CCC4=CC(=O)C=C[C@]4(C)[C@@]3(F)[C@@H](O)C[C@]2(C)[C@@]1(O)C(=O)CO (stereo partly specified) [betamethasone] | -0.559 |
| Cc1ncc([N+](=O)[O-])n1CC(O)CCl (stereo unspecified) [ornidazole] | 0.501 |
| OCCOCCN1CCN(C2=Nc3ccccc3Sc3ccccc32)CC1 [quetiapine] | -0.815 |
| COc1ccc(/C=C/C(=O)Nc2ccccc2C(=O)O)cc1OC [tranilast] | -0.448 |
| Cc1nc(N)cc(C[n+]2csc(CCO)c2C)n1 [thiamine] | 0.0333 |
| C#C[C@]1(O)CC[C@H]2[C@@H]3CCc4cc(OC5CCCC5)ccc4[C@H]3CC[C@@]21C [quinestrol] | 0.299 |
| NS(=O)(=O)c1cc2c(cc1Cl)NC=NS2(=O)=O [Chlorothiazide] | 0.287 |
| Cc1cc2cc3c(C)cc(=O)oc3c(C)c2o1 [trioxsalen] | -1.42 |
| NS(=O)(=O)c1cc(C(=O)O)c(NCc2ccco2)cc1Cl [furosemide] | 0.108 |
| CNS(=O)(=O)Cc1ccc2[nH]cc(CCN(C)C)c2c1 [sumatriptan succinate] | 0.903 |

| SMILES | MUC1 transcript change (Z-score) |
| --- | --- |
| CN(C)CC(c1ccc(O)cc1)C1(O)CCCCC1 (stereo unspecified) [desvenlafaxine succinate] | -0.421 |
| CCCCC(CC)COc1ccc(-c2nc(-c3ccc(OC)cc3)nc(-c3ccc(OCC(CC)CCCC)cc3O)n2)c(O)c1 (stereo unspecified) [bemotrizinol] | 0.99 |
| CC(CN(C)C)CN1c2ccccc2CCc2ccccc21 (stereo unspecified) [trimipramine maleate] | -0.848 |
| CN1CCCN=C1COC(=O)C(O)(c1ccccc1)C1CCCCC1 (stereo unspecified) [oxyphencyclimine hydrochloride] | 1.08 |
| O=c1n(CCCN2CCN(c3cccc(Cl)c3)CC2)nc2ccccn12 [Trazodone hydrochloride] | -0.381 |
| O=C(OCc1ccccc1)c1ccccc1 [benzyl benzoate] | 0.24 |
| COc1ccc(Cc2cnc(N)nc2N)cc1OC [diaveridine] | -1.22 |
| Cc1c(N(C)CS(=O)(=O)O)c(=O)n(-c2ccccc2)n1C [dipyrone] | 0.38 |
| C#C[C@]1(O)CCC2C3CCC4=C(CCC(=O)C4)C3CC[C@@]21C (stereo partly specified) [norethynodrel] | -0.685 |
| CCCCNc1ccc(C(=O)OCCOCCOCCOCCOCCOCCOCCOCCOCCOC)cc1 [benzonatate] | 0.365 |
| O=P(O)(O)C(O)(Cc1cccnc1)P(=O)(O)O [risedronate sodium] | -0.357 |
| COCCCOc1cc(C[C@@H](C[C@H](N)[C@@H](O)C[C@H](C(=O)NCC(C)(C)C(N)=O)C(C)C)C(C)C)ccc1OC [aliskiren hemifumarate] | 0.969 |
| CC(C)CC(N)=O [isovaleramide] | 0.0541 |
| Cc1onc(-c2c(Cl)cccc2Cl)c1C(=O)N[C@@H]1C(=O)N2[C@@H]1SC(C)(C)[C@@H]2C(=O)O [dicloxacillin sodium] | -0.153 |
| C[C@H](CCC(=O)O)[C@H]1CCC2C3C(CC[C@@]21C)[C@@]1(C)CC[C@@H](O)C[C@H]1C[C@@H]3O (stereo partly specified) [ursodiol] | 0.582 |
| O=C(CCCl)NCCc1ccccc1 [fenaclon] | -0.463 |
| CCCCOC(=O)c1ccc(N)cc1 [butamben] | -0.751 |
| NNC(=O)c1ccncc1.Nc1ccc(C(=O)O)c(O)c1 [pasiniazid] | -0.131 |
